Library screen at single concentrations

Sequences of proteins named here, by UniProt entry; tags and fusion partners are left off. Residues count along the entry.
UniProt I6X8D2, whole entry: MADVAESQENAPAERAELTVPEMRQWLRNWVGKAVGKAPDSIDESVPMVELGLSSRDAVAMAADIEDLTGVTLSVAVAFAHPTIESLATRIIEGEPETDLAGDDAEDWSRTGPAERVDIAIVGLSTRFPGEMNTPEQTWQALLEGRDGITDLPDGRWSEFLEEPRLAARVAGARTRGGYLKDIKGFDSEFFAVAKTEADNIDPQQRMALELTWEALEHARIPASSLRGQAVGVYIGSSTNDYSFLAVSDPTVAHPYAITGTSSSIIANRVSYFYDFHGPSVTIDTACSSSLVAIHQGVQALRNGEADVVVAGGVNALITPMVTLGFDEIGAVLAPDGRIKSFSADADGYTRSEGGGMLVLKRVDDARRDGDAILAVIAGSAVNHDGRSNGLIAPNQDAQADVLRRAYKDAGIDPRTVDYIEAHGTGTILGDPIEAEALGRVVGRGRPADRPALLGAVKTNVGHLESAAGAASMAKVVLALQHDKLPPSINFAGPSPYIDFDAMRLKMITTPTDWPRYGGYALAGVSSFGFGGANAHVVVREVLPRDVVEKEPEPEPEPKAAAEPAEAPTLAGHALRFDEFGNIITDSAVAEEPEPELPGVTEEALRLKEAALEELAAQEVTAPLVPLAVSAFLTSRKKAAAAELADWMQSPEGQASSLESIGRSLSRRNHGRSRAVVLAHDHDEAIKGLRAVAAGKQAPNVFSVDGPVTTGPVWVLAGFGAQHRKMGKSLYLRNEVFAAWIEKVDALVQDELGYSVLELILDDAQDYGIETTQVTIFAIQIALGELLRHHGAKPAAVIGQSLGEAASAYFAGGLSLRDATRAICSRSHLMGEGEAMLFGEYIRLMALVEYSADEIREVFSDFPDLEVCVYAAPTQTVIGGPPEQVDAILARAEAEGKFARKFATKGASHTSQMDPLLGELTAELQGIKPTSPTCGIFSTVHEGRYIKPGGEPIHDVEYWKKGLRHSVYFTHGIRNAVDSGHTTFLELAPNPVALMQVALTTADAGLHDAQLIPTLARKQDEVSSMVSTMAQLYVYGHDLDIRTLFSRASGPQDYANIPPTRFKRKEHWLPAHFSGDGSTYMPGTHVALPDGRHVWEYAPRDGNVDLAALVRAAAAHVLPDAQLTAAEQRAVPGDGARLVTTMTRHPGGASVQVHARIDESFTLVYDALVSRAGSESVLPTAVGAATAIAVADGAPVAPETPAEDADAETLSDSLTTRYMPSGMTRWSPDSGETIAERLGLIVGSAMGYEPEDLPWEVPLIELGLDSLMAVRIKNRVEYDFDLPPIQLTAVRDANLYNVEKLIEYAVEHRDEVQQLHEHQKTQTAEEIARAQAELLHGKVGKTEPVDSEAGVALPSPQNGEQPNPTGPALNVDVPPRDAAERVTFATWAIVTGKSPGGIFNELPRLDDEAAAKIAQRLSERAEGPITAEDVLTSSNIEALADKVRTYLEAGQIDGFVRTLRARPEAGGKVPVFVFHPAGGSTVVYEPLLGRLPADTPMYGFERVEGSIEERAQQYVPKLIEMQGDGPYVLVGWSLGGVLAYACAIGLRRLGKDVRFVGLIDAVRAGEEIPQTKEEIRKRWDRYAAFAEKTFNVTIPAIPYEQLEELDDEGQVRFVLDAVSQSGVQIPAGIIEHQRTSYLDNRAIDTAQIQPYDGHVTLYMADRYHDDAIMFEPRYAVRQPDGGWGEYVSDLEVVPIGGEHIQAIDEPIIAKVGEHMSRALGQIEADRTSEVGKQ
UniProt P9WNZ1, whole entry: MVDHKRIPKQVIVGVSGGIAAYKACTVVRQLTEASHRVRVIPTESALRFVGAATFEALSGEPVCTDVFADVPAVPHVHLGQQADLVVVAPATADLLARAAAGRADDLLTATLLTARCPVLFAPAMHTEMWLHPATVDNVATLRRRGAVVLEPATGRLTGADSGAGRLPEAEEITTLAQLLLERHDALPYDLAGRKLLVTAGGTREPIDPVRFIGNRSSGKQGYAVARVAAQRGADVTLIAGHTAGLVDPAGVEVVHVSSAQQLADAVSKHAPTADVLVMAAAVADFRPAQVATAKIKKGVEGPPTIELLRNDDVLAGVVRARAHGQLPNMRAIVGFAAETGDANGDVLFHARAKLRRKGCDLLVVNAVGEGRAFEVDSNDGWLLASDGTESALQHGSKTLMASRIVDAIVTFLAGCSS
UniProt Q8IDJ8, 1-583: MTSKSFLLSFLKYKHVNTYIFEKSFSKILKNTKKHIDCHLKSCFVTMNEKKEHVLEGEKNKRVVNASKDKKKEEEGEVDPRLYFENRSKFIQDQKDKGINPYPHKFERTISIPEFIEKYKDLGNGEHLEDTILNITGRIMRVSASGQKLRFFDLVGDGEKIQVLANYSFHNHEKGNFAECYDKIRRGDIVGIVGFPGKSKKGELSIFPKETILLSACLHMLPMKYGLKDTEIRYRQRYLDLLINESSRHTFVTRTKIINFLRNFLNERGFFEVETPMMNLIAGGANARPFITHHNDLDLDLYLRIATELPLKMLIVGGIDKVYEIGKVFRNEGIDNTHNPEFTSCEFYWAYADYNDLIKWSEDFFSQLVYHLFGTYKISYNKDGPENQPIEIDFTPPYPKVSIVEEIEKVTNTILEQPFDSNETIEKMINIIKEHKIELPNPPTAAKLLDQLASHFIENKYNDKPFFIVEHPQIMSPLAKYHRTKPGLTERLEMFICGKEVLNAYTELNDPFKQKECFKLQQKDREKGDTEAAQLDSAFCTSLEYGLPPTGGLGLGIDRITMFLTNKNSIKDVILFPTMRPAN
UniProt Q4DA54, 1-478: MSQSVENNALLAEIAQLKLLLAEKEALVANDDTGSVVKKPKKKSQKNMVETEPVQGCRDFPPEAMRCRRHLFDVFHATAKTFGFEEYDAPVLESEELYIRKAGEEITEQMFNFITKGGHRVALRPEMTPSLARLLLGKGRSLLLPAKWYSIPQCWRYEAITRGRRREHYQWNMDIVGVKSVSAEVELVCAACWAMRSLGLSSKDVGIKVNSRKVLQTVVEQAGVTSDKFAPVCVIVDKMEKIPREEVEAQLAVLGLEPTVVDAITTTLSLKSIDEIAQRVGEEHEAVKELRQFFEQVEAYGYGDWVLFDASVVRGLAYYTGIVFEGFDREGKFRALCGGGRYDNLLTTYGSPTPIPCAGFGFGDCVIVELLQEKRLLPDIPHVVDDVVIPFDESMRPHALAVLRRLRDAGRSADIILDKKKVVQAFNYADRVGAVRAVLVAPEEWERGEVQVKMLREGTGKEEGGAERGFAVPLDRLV

From ChEMBL document CHEMBL3988442, “University of Dundee, Small-Polar-MMV Screening Library” (2021).

Pks13 thioesterase: 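Polyketide synthase Pks13, Mycobacterium tuberculosis (UniProt I6X8D2). Enzyme assay of the thioesterase domain of polyketide synthase 13; the read-out is not stated. Compounds at 30 µM. Higher reads as stronger inhibition (inferred from which compounds were picked for retests). Size under these conditions: about 67,000 compounds, about 300 of them at 50% or above in at least one test.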
CoaBC: 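Enzyme assay of CoaBC with a phosphate dye (Biomol Green) read at 650 nm. Target: Coenzyme A biosynthesis protein CoaBC, Mycobacterium tuberculosis (UniProt P9WNZ1). Concentration: 30 µM. Higher reads as stronger inhibition, judged from the few compounds that gave an IC50. Most strong results did not repeat in a second test. About 67,000 compounds were tested under these conditions; 0.06% (about 40) showed 50% or more at least once.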
PfKRS1: 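Enzyme assay of the cytosolic lysyl-tRNA synthetase in 384-well plates, read by luminescence. Target: Lysine-tRNA ligase, Plasmodium falciparum 3D7 (UniProt Q8IDJ8). Concentration: 30 µM. Direction is inferred from only a few compounds that gave an IC50; most scored high, so higher reads as stronger inhibition. About 69,000 compounds were tested under these conditions; 0.071% (about 49) showed 50% or more at least once.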
TcHisRS: 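Enzyme assay of histidyl-tRNA synthetase; the read-out is not stated. Target: Histidine-tRNA ligase, Trypanosoma cruzi CL Brener (UniProt Q4DA54). Compounds at 30 µM. Higher reads as stronger inhibition (inferred: compounds with an IC50 in retests scored well above the rest). Of about 69,000 compounds tested this way, about 31 (0.045%) reached 50% or more in at least one test.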

Values are the deposited “Percent Effect”, in %.
How 0% and 100% were set is not recorded. Most values in the screen are low, and negative values occur.
Compounds were drawn at random from those tested, without regard to their results.
A dash means the value is not listed here; it may have been measured.

| # | compound | Pks13 thioesterase | CoaBC | PfKRS1 | TcHisRS |
|---|---|---|---|---|---|
| 1 | `O=C(NCC1(O)CCc2ccccc21)Nc1ccc2c(c1)OCO2` (stereo not shown) | -24.08% | 0.3764% | 3.728% | -1.463% |
| 2 | `CN1CC[C@H](N(C)Cc2ccccc2)C[C@H](O)C1` | -1.016% | 1.84% | 1.174% | -2.312% |
| 3 | `CSc1ncccc1C(=O)N(C)CCc1scnc1C` | -28.33% | 0.7712% | 3.604% | 6.704% |
| 4 | `Cc1cc(C)c2c(NCCC34CCCN3CCC4)ncnc2n1` | - | -15.8% | 5.928% | 7.2% |
| 5 | `O=C(Cc1csc(-c2ncccn2)n1)N1CCN2CCCCC2C1` (stereo not shown) | -3.744% | 7.131% | 5.551% | -1.01% |
| 6 | `CN(C)S(=O)(=O)N1CCOCC1CC(=O)NCCOc1ccccc1` (stereo not shown) | 0.637% | -2.033% | 6.073% | -1.288% |
| 7 | `O=C(CN1CCCC1c1noc(C2CC2)n1)N1CCc2ccccc21` (stereo not shown) | 3.372% | 3.316% | 0.7513% | 8.772% |
| 8 | `O=C(Nc1cccc2ccccc12)N1CCC(N2CCSCC2)CC1` | -7.26% | 3.204% | 0.4882% | 7.182% |
| 9 | `Cc1cccnc1NC(=O)C(C)Cn1nc(C(F)(F)F)cc1C` (stereo not shown) | -32.16% | 3.903% | 6.426% | 0.5464% |
| 10 | `O=C(c1ccncc1)N1CC[C@@H](O)[C@@H](O)[C@H](N2CCC(F)(F)CC2)C1` | - | -2.179% | 2.791% | 4.444% |
| 11 | `CCc1nc(CC(=O)NC(C#N)CC)cs1` (stereo not shown) | -31.33% | -2.114% | 6.368% | 3.922% |
| 12 | `COc1cccc(C(=O)N2CCCCC2CNC(N)=O)c1` (stereo not shown) | -29.46% | 7.179% | -1.173% | 2.273% |
| 13 | `CC1(CNS(=O)(=O)c2cccc(C(=O)N3CCSCC3)c2)COC1` | -27.67% | 2.981% | 1.703% | -5.641% |
| 14 | `COCCN1C[C@H](NC(=O)CCC(F)(F)F)[C@@H](C(C)C)C1` | -3.925% | 5.844% | 0.8005% | 5.6% |
| 15 | `CCO[C@@H]1CCN(C(=O)c2cnc(C)cn2)[C@@H]1Cc1cnn(C)c1` | -5.055% | 3.337% | 2.797% | 5.102% |
| 16 | `O=C1NCC(c2ccc(Cl)cc2)Cc2[nH]c(CCN3CCOCC3)nc21` (stereo not shown) | -1.805% | -0.4938% | 3.633% | 3.483% |
| 17 | `CC(=O)N1[C@@H](C(=O)NCC2CC2)C[C@@H]2CN(Cc3nccs3)C[C@@H]21` | -11.12% | 5.882% | 6.455% | 6.25% |
| 18 | `COCCCNC(=O)N1CCN(C(=O)c2nsc3ccccc23)CC1` | 3.226% | 1.772% | 5.049% | 3.659% |
| 19 | `COCCN1CCC(CNCc2c[nH]nc2C(C)(C)C)CC1` | -15.09% | -2.112% | -2.466% | 3.725% |
| 20 | `Cc1nn(C)c(C)c1NC(=O)CN1CCOC(Cn2cccn2)C1` (stereo not shown) | -19.34% | 11.45% | 17.9% | -0.8403% |
| 21 | `CC(C)CN(C(=O)Nc1cccc(C(=O)N(C)C)c1)C1CC1` | -26.87% | -3.163% | 1.462% | 10.3% |
| 22 | `CC(=O)N[C@@H]1Cc2ccccc2[C@H]1Nc1nnc(C2CC2)o1` | -34.52% | -1.2% | 3.359% | -2.299% |
| 23 | `Cc1ncsc1CCC(=O)N(C)Cc1nc2ccccc2n1C` | -2.698% | 11.33% | 5.146% | 3.704% |
| 24 | `Cc1cc(C)c(CNC(=O)NC(C)c2ccc3c(c2)CCC3)c(=O)[nH]1` (stereo not shown) | -20.34% | -1.02% | -0.07909% | 1.754% |
| 25 | `CN(Cc1cnn(C)c1)C(=O)NC1CCCC1` | -6.803% | 1.786% | 6.783% | -4.911% |
| 26 | `CC(NCCCc1cnn(C)c1)c1ccc(Cl)s1` (stereo not shown) | -6.908% | 3.226% | 4.751% | -9.244% |
| 27 | `OC[C@H]1CN2CCN(c3ccccn3)C[C@@H]2[C@@H]1c1ccccc1` | -1.021% | 1.35% | 1.097% | 3.468% |
| 28 | `Cc1nn(C)c(N(C)C)c1CNCc1ccccc1Cn1ccnc1` | -26.01% | 2.672% | 0.006727% | -9.014% |
| 29 | `Cc1nc(C(=O)N(CC2CCCO2)c2ccncc2)cs1` (stereo not shown) | -9.668% | 3.995% | 1.724% | 2.97% |
| 30 | `Cc1cc(C2CCC2)nc(N2CCC3(CCCNC3=O)C2)n1` (stereo not shown) | -4.669% | 2.672% | 0.3159% | 6.25% |
| 31 | `CCCc1noc(CNC2CCCN(Cc3noc(C4CC4)n3)C2)n1` (stereo not shown) | -7.282% | 3.394% | -0.9889% | 2.041% |
| 32 | `CN(C)C(=O)CCC[S+]([O-])Cc1ccc(Cl)c(Cl)c1` (stereo not shown) | -25.26% | 10.06% | -1.811% | 2.273% |
| 33 | `CCc1cc(NC(=O)N2CCC(Oc3cccnc3)C2)n(C)n1` (stereo not shown) | -6.143% | 8.841% | 5.176% | -3.448% |
| 34 | `Cc1csc(CCNC(=O)C2CCOC2)n1` (stereo not shown) | 1.309% | -6.723% | 0.481% | 8.889% |
| 35 | `CN1[C@@H](c2ccccc2)[C@@H](C(=O)NCc2ccccn2)C[C@@]1(C)C(=O)O` | -22.37% | 4.963% | 1.312% | 15.61% |
| 36 | `O=C(NCCCN1CCCC1)c1n[nH]c(=O)c2ccccc12` | -5.469% | 0.241% | 2.516% | 1.527% |
| 37 | `CC(C)CCN1CC2(CCCN(C(=O)NCc3cccs3)C2)CCC1=O` (stereo not shown) | -19.72% | 8.068% | -0.7505% | 1.093% |
| 38 | `CCc1noc(CC)c1CNC(=O)Nc1ccc2[nH]nnc2c1` | -19.29% | 4.435% | 4.355% | 2.521% |
| 39 | `Cc1nn(-c2ccccc2)cc1C(=O)N1CCCC(n2cccn2)C1` (stereo not shown) | 30.75% | 4.302% | 5.3% | -1.132% |
| 40 | `CCCn1cc(NC2CCSCC2)cn1` | -9.102% | -3.972% | 6.532% | 6.637% |
| 41 | `O=C1c2cnc(N3CCOCC3)nc2CN1c1ccc2c(c1)OCO2` | -8.225% | 3.182% | 1.16% | 1.674% |
| 42 | `CC(C)CN1CCS(=O)(=O)[C@@H]2CCN(S(=O)(=O)CC(C)C)CC[C@@H]21` | -39.33% | -3.594% | 5.632% | 6.452% |
| 43 | `c1cn(CCNc2nc(NC3CC3)nc3c2CCNCC3)nn1` | -18.8% | -4.467% | -0.9719% | 7.514% |
| 44 | `COCC(=O)NCc1cccc(Br)c1` | 2.429% | -6.117% | -0.1091% | 1.901% |
| 45 | `Cc1cc(NCCc2c(C)n[nH]c2C)nc(-c2cccnc2)n1` | -1.171% | 0.6472% | -2.929% | 14.07% |
| 46 | `CC(C)(C)N1CCCN(C(=O)c2csc(S(N)(=O)=O)c2)CC1` | -8.296% | -6.167% | -0.3446% | 0.8475% |
| 47 | `CCC(C(=O)NCC1=CCN(C)CC1)c1ccccc1` (stereo not shown) | 13.21% | -1.139% | -1.706% | -8.537% |
| 48 | `Nc1cc(N2CCOCC(Cc3ccc4[nH]ccc4c3)C2)ncn1` (stereo not shown) | -12.95% | -10.51% | -1.155% | 23.57% |
| 49 | `COCC(=O)N1CCCC1c1csc(Nc2cnccn2)n1` (stereo not shown) | 29.14% | 1.456% | 2.283% | 8.791% |
| 50 | `CS(=O)(=O)NCC1CCCN(C(=O)Nc2ccccc2N2CCCC2)C1` (stereo not shown) | 5.439% | 6.624% | 2.421% | 8.04% |
| 51 | `CN(CCCNC(=O)CN1CCS(=O)(=O)CC1)c1ccccc1` | -22.91% | -1.952% | 0.7025% | 4.255% |
| 52 | `Cn1nccc1C(=O)N1CCC(c2nnsc2S(C)(=O)=O)CC1` | 9.542% | -9.724% | -0.4553% | 1.515% |
| 53 | `CCCn1nc2c(cc1=O)CN(Cc1nc(CCOC)no1)CC2` | -14.38% | -0.6211% | 6.346% | -65.78% |
| 54 | `COc1cc(N2C[C@H]3CCC[C@@H](CN(C)C4CC4)[C@H]3C2)ncn1` | -5.892% | 3.448% | 2.146% | 9.244% |
| 55 | `CCc1noc(CS(=O)(=O)c2cccc(OC)c2)n1` | -13.33% | 6.818% | 5.63% | 6.349% |
| 56 | `CSc1c[nH]nc1NS(=O)(=O)c1cc(F)ccc1Cl` | -23.05% | 0% | 5.744% | -1.064% |
| 57 | `CN(Cc1ccno1)C(=O)c1cccc(CC2CCNCC2)c1` | -9.47% | -0.2457% | 3.644% | 5.882% |
| 58 | `CSc1ccccc1C(=O)NCCC(O)c1ccco1` (stereo not shown) | 5.303% | -6.131% | 5.172% | 5.155% |
| 59 | `CCOCCCNC(=O)C1(C)CCC(=O)N1Cc1ccccc1F` (stereo not shown) | -12.52% | -3.294% | 6.713% | 2% |
| 60 | `Cc1ccc(C(=O)N(C)C)cc1NC(=O)COCC1CC1` | -2.622% | -4.969% | 1.607% | -30.26% |
| 61 | `O=C(CCc1ccc2c(c1)OCO2)N1CCCC(n2cccn2)C1` (stereo not shown) | -2.178% | 13.17% | -1.335% | -5.882% |
| 62 | `O=C(Nc1cn[nH]c1)NC1CCN(c2ccccc2OC(F)F)C1` (stereo not shown) | -2.842% | 4.294% | 3.164% | 4.938% |
| 63 | `Cc1cc(C)n(CNc2nonc2C(N)=O)n1` | -8.664% | 0.1227% | -1.819% | 5.78% |
| 64 | `CC(C)CCn1c(=O)nc2n1C(=O)N(c1ccc(F)cc1)C2` | -35.45% | 6.883% | -5.792% | 3.261% |
| 65 | `Cc1cc(C)cc(C(=O)N2CCCC3(CCCC(=O)N3C)C2)c1` (stereo not shown) | -16.1% | 4.941% | 3.829% | -2.404% |
| 66 | `COc1ccc(CN2Cc3cn(C)nc3C(COCC3CC3)C2)cc1` (stereo not shown) | -15.59% | 1.777% | -0.9985% | 3.941% |
| 67 | `Cn1nnc2c1CCN(C(C(=O)N1CCCCC1)c1ccccc1)C2` (stereo not shown) | -9.35% | -2.851% | 10.79% | 8.995% |
| 68 | `COCC(=O)Nc1ccc2c(c1)C1(CCOCC1)CN2CCF` | 2.819% | 3.218% | 5.374% | 3.315% |

The last 6 entries again:

| compound | Pks13 thioesterase | CoaBC | PfKRS1 | TcHisRS |
|---|---|---|---|---|
| `Cc1cc(C)n(CNc2nonc2C(N)=O)n1` | -8.664% | 0.1227% | -1.819% | 5.78% |
| `CC(C)CCn1c(=O)nc2n1C(=O)N(c1ccc(F)cc1)C2` | -35.45% | 6.883% | -5.792% | 3.261% |
| `Cc1cc(C)cc(C(=O)N2CCCC3(CCCC(=O)N3C)C2)c1` (stereo not shown) | -16.1% | 4.941% | 3.829% | -2.404% |
| `COc1ccc(CN2Cc3cn(C)nc3C(COCC3CC3)C2)cc1` (stereo not shown) | -15.59% | 1.777% | -0.9985% | 3.941% |
| `Cn1nnc2c1CCN(C(C(=O)N1CCCCC1)c1ccccc1)C2` (stereo not shown) | -9.35% | -2.851% | 10.79% | 8.995% |
| `COCC(=O)Nc1ccc2c(c1)C1(CCOCC1)CN2CCF` | 2.819% | 3.218% | 5.374% | 3.315% |